The record followed here is patent publication US6410751B1, “Water soluble tri-substituted 1, 2-dioxetane compounds having increased storage stability, synthetic processes and intermediates” (Lumigen, Inc., priority 1995, dated 2002).

The nature of this data set: Reagent carryover in capsule chemistry analysis system (TECHNICON IMMUNO 1 TSH method, luminescence detection). To be noted: for % Reduction of chemical carryover: relative to LUMIGEN PPD; for Chemical carryover, ppm (peak cps in adjacent test divided by peak cps in test N): signal for the N+1 test (worst case), dioxetanes at the same concentration. The protocol: The experiments described below were performed on a prototype capsule chemistry analysis system essentially as described by Kumar et al in U.S. Pat. No. 5,399,497, with the detection system configured to measure light emission (luminescence). The method and apparatus comprises feeding a stream of fluid segments through a Teflon tube, where the tube has an isolating layer of fluorocarbon oil on the inner surface. Sample and reagents are aspirated into this tube, and the resulting liquid segments are moved through the tube. Separation steps and washing steps which are required by heterogeneous immunoassay methods were facilitated by means of magnets, which transferred magnetic particles from one aqueous segment to another. The detection system was comprised of a photon counter and a fiber optic read head, in which the fibers were radially arranged around the Teflon tube to maximize the efficiency of light collection.
The TECHNICON IMMUNO 1® TSH method (Bayer Corporation, Tarrytown, N.Y., USA) was used as a representative immunoassay method for the testing of luminogenic reagents. The method principle involved incubation of a specimen containing the antigen TSH with a first reagent (R1), which contained a fluorescein-labeled antibody, and simultaneously with a second reagent (R2), which contained an antibody-alkaline phosphatase (ALP) conjugate. Each antibody was specific for a different epitope on the TSH antigen, so that formation of a “sandwich” was promoted between these two antibodies and the TSH antigen. Magnetic particles containing bound anti-fluorescein were used to capture the sandwich, and the particles were subsequently washed to remove unbound reagents. The particles were then exposed to the luminogenic reagent, which contained a substrate for ALP, and luminescence was measured.
R1 (10.4 μl of serum-based solution containing fluorescein-labeled antibody to TSH), R2 (10.4 μl of serum-based solution containing antibody to TSH conjugated with ALP) and S (7.2 μl of serum sample) were aspirated into the second segment. The next two segments (W1 and W2) were comprised of the same wash buffer used above in the MP segment. The fifth segment was R3, of the composition described above, with the key elements being the luminogenic substrate and the luminescence enhancer. The sixth segment was an inter-test buffer (same as the particle buffer described above), which was used to isolate adjacent tests. Magnetic transfers are depicted by the arrows in the FIG. 1. These transfers were facilitated by one of two magnetic transfer assemblies (M1 or M2). After an incubation of 13 minutes, during which sandwich formation occurred, M1 transferred the magnetic particles into the R1+R2+S segment to initiate capture. After an additional period of 6 minutes, M2 transferred the particles into the first wash segment. After an additional period of 12 seconds, M2 transferred the particles into the second wash segment. After another period of 12 seconds, M2 transferred the particles into the R3 segment, and light emission from this segment was detected as the stream of aqueous segments passed back and forth through the luminometer readhead.
Since the Teflon tube is transparent to light, a problem with light piping (or “optical carryover”) was expected. Specifically, some of the photons emitted from the R3 segment of an adjacent test could enter the Teflon material, propagate down the length of the tube and be scattered into the detector during the measurement of the signal of the test of interest. […] Instead of declining rapidly with distance from test N, peaks of light output were observed centered around the R3 segments of the adjacent test packages, as shown in FIG. 2 of the drawings. In FIG. 2, test N produced a high level of luminescence, approximately 7.5 million counts per seconds (cps). […]

For the molecule `O=C([O-])C(CCOC1(c2cccc(OP(=O)([O-])[O-])c2)OOC12C1CC3CC(C1)CC2C3)C(=O)[O-].[Na+].[Na+].[Na+].[Na+]` (stereo not drawn) [Dioxetane 1], the “Chemical carryover, ppm (peak cps in adjacent test divided by peak cps in test N)” value is on record as 0 ppm. Also, the “% Reduction of chemical carryover” value (N+1 test) amounted to 100%.
The like results for `O=C([O-])CCCOC1(c2cccc(OP(=O)([O-])[O-])c2)OOC12C1CC3CC(C1)CC2C3.[Na+].[Na+].[Na+]` (stereo not drawn) [Dioxetane 2, [4-(3-carboxypropoxy)-4-(3-phosphoryloxyphenyl)]spiro[1,2-dioxetane-3,2′-tricyclo[3.3.1.1^3,7]-decane]] were, in that order, 260 ppm and 84%.
Turning to `COC1(c2cccc(OP(=O)([O-])[O-])c2)OOC12C1CC3CC(C1)CC2C3.[Na+].[Na+]` (stereo not drawn) [LUMIGEN PPD, [4-(methoxy)-4-(3-phosphoryloxyphenyl)]spiro-[1,2-dioxetane-3,2′-tricyclo[3.3.1.1^3,7]-decane], reference compound], the “Chemical carryover, ppm (peak cps in adjacent test divided by peak cps in test N)” value was 1640 ppm. The “Carryover compared with that observed with CSPD” value (N+1 test) is reported as “more than twice as high”.
